For two molecules, binding results are on record in paper PMC4646322 (The Journal of Biological Chemistry, 2015).

Experiment [1] deals with Full-length E. coli TolR(1–142) (Escherichia coli K12) (UniProt P0ABV6). Kind of experiment: native MS; native state ESI-MS, TolR(1–142) 30 μM, 100 mM ammonium acetate with 0.05% LDAO; freed from LDAO micelles in the collision cell; both purified.
For experiment [2], the target named is E. coli TolR(36–133) (Escherichia coli K12) (UniProt P0ABV6). Kind of experiment: condition: only at low micromolar concentrations (lowest sample 20 μM); SEC-MALS; SEC-MALLS, Superdex75 10/300, 50 mM Tris pH 7.5, 150 mM NaCl; the lowest protein concentration (20 μM loaded; 'low micromolar'); both purified.

Results are given in words; binding and its absence hold for the method and conditions named. Some binding calls cover weakened binding; strength is not graded here.

B1: Full-length E. coli TolR(1–142) (protein, UniProt P0ABV6 1-142)
chain: GAMMARARGRGRRDLKSEINIVPLLDVLLVLLLIFMATAPIITQSVEVDLPDATESQAVSSNDNPPVIVEVSGIGQYTVVVEKDRLERLPPEQVVAEVSSRFKANPKTVFLIGGAKDVPYDEIIKALNLLHSAGVKSVGLMTQPI
Consider B1, for which the binding entry in experiment [1] is on record as “binds”.

B2: E. coli TolR(36–133) (domain or fragment, Escherichia coli K12)
chain: GAMAPIITQSVEVDLPDATESQAVSSNDNPPVIVEVSGIGQYTVVVEKDRLERLPPEQVVAEVSSRFKANPKTVFLIGGAKDVPYDEIIKALNLLHSAGVK
notes: three residues left at the N terminus after cleavage by tobacco etch virus protease; TolR, Escherichia coli K12, residues 36-133 (9 C-terminal residues deleted); expected mass 10,768.2 Da; Dimer that dissociates on dilution; essentially monomeric at low micromolar concentrations; source: E. coli BL21 DE3, purified (HisTrap, TEV cleavage, Superdex75); not shown: His6, N-terminal, cleaved
As for B2, the binding entry in experiment [2] is on record as “no binding”.
